Reference: publication PMC12040169 (PLOS Biology, 2025)
The list shows a part of the results.

Test system: T1, CTL2-GFP (C. trachomatis L2/434/Bu, GFP-expressing)
T1 construct: L2/434/Bu, GFP-expressing
Design: species or system HeLa; Intracellular C. trachomatis growth in HeLa cells, bulk GFP fluorescence relative to DMSO
Settings: bulk GFP, single well; 28.5 h, 10 µM; inhibitor

| SMILES | % of control remaining [%] |
| --- | --- |
| Cc1nn(Cc2ccc(F)cc2)c2sc(C(=O)NCc3ccc(S(N)(=O)=O)cc3)cc12 [CBK295181] | 81.3949 |
| O=C(O)CC(C(=O)Nc1ccccc1)C1CCCO1 (centres unmarked) [CBK286809] | 108.713 |
| C=C(C)Cn1c(SCC(C)C)nnc1-c1scc(C)c1Cl [CBK200095] | 110.797 |
| COc1ccc(Br)cc1/C=C/C(=O)NC(=S)Nc1cc(C(=O)O)ccc1Cl [CBK265564] | 100 |
| O=C(O)CCc1ccc(-c2cccs2)n1-c1ccc(C(=O)O)cc1 [CBK266016] | 136.532 |
| N#Cc1ccccc1NC(=O)NCCC1=CCCCC1 [CBK044365] | 104.886 |
| Nc1n[nH]c2nc(-c3ccccc3)c3c(c12)CCC3 [CBK288178] | 111.274 |
| CC(C)(C)c1ccc(OCc2nc(N)c3c(N)n[nH]c3n2)cc1 [CBK008565] | 114.666 |
| c1ccc(COc2ccc3[nH]c4c(c3c2)CCNC42CCCN(CC3CC3)C2)cc1 (centres unmarked) [CBK040619] | 81.0055 |
| Cc1cc(C)nc(NC(=O)c2cccc(Cl)c2)n1 [CBK288165] | 104.453 |
| O=C(NCC(F)(F)F)c1cnc(-c2ccc(Cl)cc2)c(-c2ccco2)c1 [CBK037468] | 164.029 |
| O=C(O)CCC(=O)CCC(=O)c1cccs1 [CBK264807] | 106.621 |
| Cc1nn(C)c(C)c1C(=O)Nc1sc2c(c1C#N)CCC(C)C2 (centres unmarked) [CBK304645] | 99.7135 |
| CC(C)CCNC(=O)c1ccc(N2CCN(C(=O)c3ccccc3C(F)(F)F)CC2)nn1 [CBK153222] | 79.4428 |
| O=C(NCCN1CCOCC1)c1cc(-n2cnnc2)ccc1Cl [CBK268023] | 112.107 |
| CC(=O)NCc1cccc(-c2cc(COc3ccc4c(c3)OCO4)cnc2-c2ccc(Cl)cc2)c1 [CBK164106A] | 104.899 |
| CC1CCN(C(=O)CC(NC(N)=O)c2cccc(Br)c2)CC1 (centres unmarked) [CBK305788] | 147.541 |
| CS(=O)(=O)NC1CCCCC1 [CBK012234] | 162.016 |
| Cc1ccn(CCNC(=O)c2cc3cccc(C)c3nc2C)n1 [CBK282645] | 115.349 |
| CC(C)(C)OC(=O)N1CCN(c2cc(Cl)nc(N)n2)CC1 [CBK003505] | 121.833 |
| O=C(c1cccs1)n1ccc(-c2ccc3c(c2)CCO3)n1 [CBK006090] | 104.378 |
| CC(=O)N1CCc2nc(NC(=O)c3cccs3)sc2C1 [CBK282680] | 118.062 |
| CC1(OCc2ccccc2)SC(NC2CCCCCC2)=NC1=O (centres unmarked) [CBK105606] | 130.166 |
| COc1ccc(-c2nc3ccccn3c2CN2CCC(C(=O)O)CC2)cc1OC [CBK287063] | 128.731 |
| COCCNC(=O)N1CCN(Cc2ccccn2)CC1 [CBK304817] | 117.46 |
| COc1ccc(C)cc1NC(=O)CSc1nc(C)cc(C(F)(F)F)n1 [CBK270205] | 116.424 |
| O=C(OCCc1cccnc1)N1CCC(C(F)(F)F)CC1 [CBK200159] | 122.491 |

| SMILES | % of control remaining [%] |
| --- | --- |
| Cc1ccc(C(=O)c2coc3ccc(OCC(=O)O)cc23)cc1 [CBK263084] | 116.648 |
| COc1cccc(-c2nc(C3CCN(CCc4ccc(F)cc4)CC3)n3ccccc23)c1 [CBK035373] | 123.686 |
| C[C@H](Nc1nc(-c2cccc3ncccc23)cnc1N)c1ccccc1 [CBK063771] | 118.11 |
| O=C(COc1ccc(S(=O)(=O)N2CCCC2)cc1Cl)Nc1ccc2c(c1)OCCO2 [CBK268559] | 83.1605 |
| Cn1ccnc1C(=O)N1C[C@H]2CCc3c(n[nH]c3C(F)(F)F)[C@H]2C1 [CBK283441] | 124.113 |
| CCOC(=O)Cn1ncc2c3sc(C)cc3n(C)c2c1=O [CBK282388] | 166.364 |
| CC1(C)NC(=O)N(CC(O)Cn2c3ccccc3c3ccccc32)C1=O (centres unmarked) [CBK304318] | 110.058 |
| CCS(=O)(=O)N1CC2CCCC(O)(c3ccc(F)cc3)C2C1 (centres unmarked) [CBK284363] | 124.293 |
| CCCc1[nH]nc(O)c1-c1cccc2ccccc12 [CBK075125] | 103.615 |
| CC(C)(C)N1C(=O)c2ccc(C(=O)Nc3ccccc3C(=O)O)cc2C1=O [CBK287004] | 106.237 |
| CC(C)[C@H](CO)Nc1nc(-c2ccc(CCC(=O)O)cc2)cn2ccnc12 [CBK037522] | 204.299 |
| Cc1ccnc(NS(=O)(=O)c2ccc(NS(C)(=O)=O)cc2)n1 [CBK261552] | 116.257 |
| N#Cc1ccc(CNC(=O)c2ccc3nc[nH]c3c2)cc1 [CBK153332] | 78.2232 |
| Cc1nc(CC(=O)NC(Cc2ccsc2)c2cccnc2)cs1 (centres unmarked) [CBK285389] | 92.2027 |
| O=C(O)CSc1ccc(Br)c2cccc(C(=O)O)c12 [CBK126919] | 201.499 |
| N=C(N)NCCc1ccc(Cl)cc1 [CBK024074G] | 61.8853 |
| CS(=O)(=O)c1ccc(-n2nnnc2CN2CCC3(CCCC3)C2)cc1 [CBK306178] | 174.713 |
| Cc1cc(C)n(CC(=O)N2CCC(c3cc4cccnc4[nH]3)CC2)n1 [CBK284999] | 92.6053 |
| O=C1Nc2ccccc2C12NN=C(c1ccccc1)S2 (centres unmarked) [CBK017221] | 85.4693 |
| CCOc1ccc(Cc2nnc(S)n2C2CC2)cc1OCC [CBK288388] | 145.637 |
| O=C(CN1CCCC1)Nc1sc2c(c1C(=O)NCc1ccccc1)CCCC2 [CBK268926] | 110.165 |
| COCC(=O)N1CCc2sccc2C1c1ccc(NC(=O)c2ccccc2F)cc1 (centres unmarked) [CBK286469] | 134.871 |
| Nc1ncc(-c2ccncc2)nc1NC1CCCCC1 [CBK063604] | 189.982 |
| COc1ccc(NC(=O)CC2SC(NC3CCCCC3)=NC2=O)c(OC)c1 (centres unmarked) [CBK059502] | 124.718 |
| O=C(Cc1c[nH]c2ccccc12)Nc1cnc(-c2cccc(OC(F)(F)F)c2)c(-c2cccnc2)n1 [CBK036863] | 204.129 |
| Oc1cccc(-c2cc(CC3(NCc4cnc5ccccc5c4)COC3)no2)c1 [CBK289662] | 80.4313 |
| CCC(=O)N1C[C@@H](N(C)C)[C@H](c2cn(C)c3ccccc23)C1 [CBK285008] | 154.028 |

| SMILES | % of control remaining [%] |
| --- | --- |
| COc1cc(-c2cncc(NCc3cccc(Cl)c3)n2)cc(OC)c1OC [CBK065284] | 90.7841 |
| Cc1ccc(-c2csc(NC(=O)c3cccnc3)n2)cc1 [CBK072677] | 66.0716 |
| CCN(C(=O)Cn1c(=O)cc(C)c2ccccc21)C1CCN(C)CC1 [CBK281871] | 119.989 |
| CC(=O)N1CCN(C(=O)c2nn(-c3ccc(F)cc3)c3c2CCCCC3)CC1 [CBK295293] | 108.912 |
| CS(=O)(=O)N1CCc2cc(-c3cc4ccccn4c3)ccc21 [CBK285256] | 93.5128 |
| COc1ccc(/C=N/NS(=O)(=O)c2ccc(C)cc2)cc1CSc1ccccn1 [CBK263036] | 85.9441 |
| Cc1ccc(S(=O)(=O)N2CCN(C(c3ccccc3)c3ccccc3)CC2)cc1[N+](=O)[O-] [CBK293949] | 118.473 |
| Cc1ccc(-c2nnc(CNC(=O)C(c3ccccc3)c3ccccc3)o2)s1 [CBK286299] | 100.703 |
| COc1ccc([C@@H]2CCN(C(=O)Cc3ccc(F)cc3)C[C@H]2O)cc1 [CBK283709] | 118.907 |
| Cn1nc(NC(=O)c2cnccn2)c2c(N3CCOCC3)cccc21 [CBK306716] | 119.852 |
| CC(C)C(C(=O)O)N1C(=O)C2C3C=CC(C3)C2C1=O (centres unmarked) [CBK286535] | 98.3586 |
| S=c1[nH]cc(-c2ccc(Br)cc2)o1 [CBK288498] | 115.473 |
| CSCCN1CCN(c2nccnc2OCCN2C(=O)CCC2=O)CC1 [CBK084301] | 106.302 |
| CCCOC(=O)N(O)c1ccc(Cl)c(Cl)c1 [CBK288400] | 69.2194 |
| CCn1c2cc(C)sc2c2cnn(CC(=O)NC(C)C)c(=O)c21 [CBK284172] | 120.924 |
| NC(=O)CCNC(=O)N1CCc2ccccc2C1 [CBK155288] | 149.842 |
| COc1ccccc1CC(=O)N1CCC(Cc2cccc(-c3cccs3)c2)(C(N)=O)CC1 [CBK285743] | 119.789 |
| COc1ccccc1-c1cc(N2CCN(CC(=O)N(C)c3ccccc3)CC2)ncn1 [CBK091136] | 222.801 |
| CC(=O)N1CCC(Cn2nc(-c3ccc(F)cc3)ccc2=O)CC1 [CBK282406] | 127.83 |
| O=C(Nc1ccc(O)cc1)c1cnc(-c2ccc(Cl)cc2)c(-c2cccnc2)c1 [CBK037516] | 184.535 |
| CCN1CCCCC1CNC(=O)Cn1nc(C)cc1C (centres unmarked) [CBK282057] | 109.75 |
| O=C(C[C@@H]1O[C@H](CNS(=O)(=O)c2ccccc2)[C@@H](O)[C@H]1O)N1CCCC1 [CBK288909] | 128.278 |
| CN(Cc1ccccc1)c1nccnc1-c1cccnc1 [CBK037414] | 100 |
| COC(=O)c1ccc(NC(=O)c2ccccc2-c2ccccc2C(=O)O)cc1 [CBK265759] | 87.2085 |
| Cc1nc(C)c(S(=O)(=O)Nc2ccccc2-c2nnnn2C(C)C)s1 [CBK305508] | 129.734 |
| CCN(CC)C(=O)C1CCCN(C(=O)NCc2ccc3c(c2)OCO3)C1 (centres unmarked) [CBK156121] | 115.833 |

Random excerpt: 4 records from the list, in no set order.

| SMILES | % of control remaining [%] |
| --- | --- |
| S=c1[nH]cc(-c2ccc(Br)cc2)o1 [CBK288498] | 115.473 |
| CC(C)C(C(=O)O)N1C(=O)C2C3C=CC(C3)C2C1=O (centres unmarked) [CBK286535] | 98.3586 |
| COc1cccc(-c2nc(C3CCN(CCc4ccc(F)cc4)CC3)n3ccccc23)c1 [CBK035373] | 123.686 |
| Cc1ccc(S(=O)(=O)N2CCN(C(c3ccccc3)c3ccccc3)CC2)cc1[N+](=O)[O-] [CBK293949] | 118.473 |
